# Measurements reported in paper PMC10333884, “Large‐scale phosphomimetic screening identifies phospho‐modulated motif‐based protein interactions” (Molecular Systems Biology, 2023).
# By UniProt entry, the sequences of proteins in these tests, tags left out. Residues count along the entry.
# UniProt Q00610, residues 1-364: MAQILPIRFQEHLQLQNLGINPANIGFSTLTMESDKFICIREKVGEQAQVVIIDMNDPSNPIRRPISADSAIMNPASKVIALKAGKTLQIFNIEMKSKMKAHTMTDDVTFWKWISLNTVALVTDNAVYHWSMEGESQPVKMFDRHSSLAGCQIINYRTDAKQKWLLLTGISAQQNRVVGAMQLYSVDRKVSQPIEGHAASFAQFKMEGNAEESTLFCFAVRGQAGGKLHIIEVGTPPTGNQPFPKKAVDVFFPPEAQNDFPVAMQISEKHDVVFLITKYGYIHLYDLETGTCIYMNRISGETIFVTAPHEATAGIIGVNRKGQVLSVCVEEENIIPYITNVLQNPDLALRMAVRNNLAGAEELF
# Target: Clathrin NTD, tagged bait of the phage selections (human) (UniProt Q00610)
# Assay: proteomic peptide-phage display (ProP-PD); GST- or MBP-tagged bait immobilised in MaxiSorp wells; PM_HD2 library on M13 p8; four rounds of selection at 4°C, negative selection on the tag; enriched pools read by NGS; only the target purified
binder,measurement,value
"GQLIDLSSPLIQLSPE [GTSE1_(692–707) peptide, displayed on phage]",binding,binds

# These are yes or no findings as the source states them, for the method shown. Binding seen in cells or lysates may run through a third protein. A yes stands for co-enrichment or nearness to the bait. Other partners may have been found.
